Experimental data taken from article PMC10121471.
Results are given in words; binding and its absence hold for the method and conditions named. Binding seen in cells or lysates may run through a third protein. Here binding means that the protein was enriched with, or labelled near, the bait; the list need not be complete.

Amino acid sequences for entries named in this document (tags omitted).
UniProt Q15910: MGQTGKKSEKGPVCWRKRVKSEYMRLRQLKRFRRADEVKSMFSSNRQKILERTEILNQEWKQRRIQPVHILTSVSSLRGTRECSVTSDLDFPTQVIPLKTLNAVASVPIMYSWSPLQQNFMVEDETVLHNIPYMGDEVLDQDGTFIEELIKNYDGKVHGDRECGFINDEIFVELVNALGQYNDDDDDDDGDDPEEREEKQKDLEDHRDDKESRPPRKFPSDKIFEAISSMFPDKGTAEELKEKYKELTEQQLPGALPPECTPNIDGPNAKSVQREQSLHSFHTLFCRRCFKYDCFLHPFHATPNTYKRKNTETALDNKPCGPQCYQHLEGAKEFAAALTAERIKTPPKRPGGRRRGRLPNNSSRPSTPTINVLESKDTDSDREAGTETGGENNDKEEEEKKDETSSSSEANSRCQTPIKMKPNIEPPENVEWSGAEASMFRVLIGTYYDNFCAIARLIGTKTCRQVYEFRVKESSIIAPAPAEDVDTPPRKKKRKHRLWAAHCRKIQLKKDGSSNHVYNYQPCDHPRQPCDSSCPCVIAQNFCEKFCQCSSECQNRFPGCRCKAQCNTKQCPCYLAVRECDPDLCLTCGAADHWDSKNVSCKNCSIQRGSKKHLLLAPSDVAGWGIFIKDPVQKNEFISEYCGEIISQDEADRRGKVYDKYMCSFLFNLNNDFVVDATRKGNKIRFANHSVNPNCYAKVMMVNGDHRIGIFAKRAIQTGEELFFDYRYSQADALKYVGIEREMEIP
UniProt Q5T4S7: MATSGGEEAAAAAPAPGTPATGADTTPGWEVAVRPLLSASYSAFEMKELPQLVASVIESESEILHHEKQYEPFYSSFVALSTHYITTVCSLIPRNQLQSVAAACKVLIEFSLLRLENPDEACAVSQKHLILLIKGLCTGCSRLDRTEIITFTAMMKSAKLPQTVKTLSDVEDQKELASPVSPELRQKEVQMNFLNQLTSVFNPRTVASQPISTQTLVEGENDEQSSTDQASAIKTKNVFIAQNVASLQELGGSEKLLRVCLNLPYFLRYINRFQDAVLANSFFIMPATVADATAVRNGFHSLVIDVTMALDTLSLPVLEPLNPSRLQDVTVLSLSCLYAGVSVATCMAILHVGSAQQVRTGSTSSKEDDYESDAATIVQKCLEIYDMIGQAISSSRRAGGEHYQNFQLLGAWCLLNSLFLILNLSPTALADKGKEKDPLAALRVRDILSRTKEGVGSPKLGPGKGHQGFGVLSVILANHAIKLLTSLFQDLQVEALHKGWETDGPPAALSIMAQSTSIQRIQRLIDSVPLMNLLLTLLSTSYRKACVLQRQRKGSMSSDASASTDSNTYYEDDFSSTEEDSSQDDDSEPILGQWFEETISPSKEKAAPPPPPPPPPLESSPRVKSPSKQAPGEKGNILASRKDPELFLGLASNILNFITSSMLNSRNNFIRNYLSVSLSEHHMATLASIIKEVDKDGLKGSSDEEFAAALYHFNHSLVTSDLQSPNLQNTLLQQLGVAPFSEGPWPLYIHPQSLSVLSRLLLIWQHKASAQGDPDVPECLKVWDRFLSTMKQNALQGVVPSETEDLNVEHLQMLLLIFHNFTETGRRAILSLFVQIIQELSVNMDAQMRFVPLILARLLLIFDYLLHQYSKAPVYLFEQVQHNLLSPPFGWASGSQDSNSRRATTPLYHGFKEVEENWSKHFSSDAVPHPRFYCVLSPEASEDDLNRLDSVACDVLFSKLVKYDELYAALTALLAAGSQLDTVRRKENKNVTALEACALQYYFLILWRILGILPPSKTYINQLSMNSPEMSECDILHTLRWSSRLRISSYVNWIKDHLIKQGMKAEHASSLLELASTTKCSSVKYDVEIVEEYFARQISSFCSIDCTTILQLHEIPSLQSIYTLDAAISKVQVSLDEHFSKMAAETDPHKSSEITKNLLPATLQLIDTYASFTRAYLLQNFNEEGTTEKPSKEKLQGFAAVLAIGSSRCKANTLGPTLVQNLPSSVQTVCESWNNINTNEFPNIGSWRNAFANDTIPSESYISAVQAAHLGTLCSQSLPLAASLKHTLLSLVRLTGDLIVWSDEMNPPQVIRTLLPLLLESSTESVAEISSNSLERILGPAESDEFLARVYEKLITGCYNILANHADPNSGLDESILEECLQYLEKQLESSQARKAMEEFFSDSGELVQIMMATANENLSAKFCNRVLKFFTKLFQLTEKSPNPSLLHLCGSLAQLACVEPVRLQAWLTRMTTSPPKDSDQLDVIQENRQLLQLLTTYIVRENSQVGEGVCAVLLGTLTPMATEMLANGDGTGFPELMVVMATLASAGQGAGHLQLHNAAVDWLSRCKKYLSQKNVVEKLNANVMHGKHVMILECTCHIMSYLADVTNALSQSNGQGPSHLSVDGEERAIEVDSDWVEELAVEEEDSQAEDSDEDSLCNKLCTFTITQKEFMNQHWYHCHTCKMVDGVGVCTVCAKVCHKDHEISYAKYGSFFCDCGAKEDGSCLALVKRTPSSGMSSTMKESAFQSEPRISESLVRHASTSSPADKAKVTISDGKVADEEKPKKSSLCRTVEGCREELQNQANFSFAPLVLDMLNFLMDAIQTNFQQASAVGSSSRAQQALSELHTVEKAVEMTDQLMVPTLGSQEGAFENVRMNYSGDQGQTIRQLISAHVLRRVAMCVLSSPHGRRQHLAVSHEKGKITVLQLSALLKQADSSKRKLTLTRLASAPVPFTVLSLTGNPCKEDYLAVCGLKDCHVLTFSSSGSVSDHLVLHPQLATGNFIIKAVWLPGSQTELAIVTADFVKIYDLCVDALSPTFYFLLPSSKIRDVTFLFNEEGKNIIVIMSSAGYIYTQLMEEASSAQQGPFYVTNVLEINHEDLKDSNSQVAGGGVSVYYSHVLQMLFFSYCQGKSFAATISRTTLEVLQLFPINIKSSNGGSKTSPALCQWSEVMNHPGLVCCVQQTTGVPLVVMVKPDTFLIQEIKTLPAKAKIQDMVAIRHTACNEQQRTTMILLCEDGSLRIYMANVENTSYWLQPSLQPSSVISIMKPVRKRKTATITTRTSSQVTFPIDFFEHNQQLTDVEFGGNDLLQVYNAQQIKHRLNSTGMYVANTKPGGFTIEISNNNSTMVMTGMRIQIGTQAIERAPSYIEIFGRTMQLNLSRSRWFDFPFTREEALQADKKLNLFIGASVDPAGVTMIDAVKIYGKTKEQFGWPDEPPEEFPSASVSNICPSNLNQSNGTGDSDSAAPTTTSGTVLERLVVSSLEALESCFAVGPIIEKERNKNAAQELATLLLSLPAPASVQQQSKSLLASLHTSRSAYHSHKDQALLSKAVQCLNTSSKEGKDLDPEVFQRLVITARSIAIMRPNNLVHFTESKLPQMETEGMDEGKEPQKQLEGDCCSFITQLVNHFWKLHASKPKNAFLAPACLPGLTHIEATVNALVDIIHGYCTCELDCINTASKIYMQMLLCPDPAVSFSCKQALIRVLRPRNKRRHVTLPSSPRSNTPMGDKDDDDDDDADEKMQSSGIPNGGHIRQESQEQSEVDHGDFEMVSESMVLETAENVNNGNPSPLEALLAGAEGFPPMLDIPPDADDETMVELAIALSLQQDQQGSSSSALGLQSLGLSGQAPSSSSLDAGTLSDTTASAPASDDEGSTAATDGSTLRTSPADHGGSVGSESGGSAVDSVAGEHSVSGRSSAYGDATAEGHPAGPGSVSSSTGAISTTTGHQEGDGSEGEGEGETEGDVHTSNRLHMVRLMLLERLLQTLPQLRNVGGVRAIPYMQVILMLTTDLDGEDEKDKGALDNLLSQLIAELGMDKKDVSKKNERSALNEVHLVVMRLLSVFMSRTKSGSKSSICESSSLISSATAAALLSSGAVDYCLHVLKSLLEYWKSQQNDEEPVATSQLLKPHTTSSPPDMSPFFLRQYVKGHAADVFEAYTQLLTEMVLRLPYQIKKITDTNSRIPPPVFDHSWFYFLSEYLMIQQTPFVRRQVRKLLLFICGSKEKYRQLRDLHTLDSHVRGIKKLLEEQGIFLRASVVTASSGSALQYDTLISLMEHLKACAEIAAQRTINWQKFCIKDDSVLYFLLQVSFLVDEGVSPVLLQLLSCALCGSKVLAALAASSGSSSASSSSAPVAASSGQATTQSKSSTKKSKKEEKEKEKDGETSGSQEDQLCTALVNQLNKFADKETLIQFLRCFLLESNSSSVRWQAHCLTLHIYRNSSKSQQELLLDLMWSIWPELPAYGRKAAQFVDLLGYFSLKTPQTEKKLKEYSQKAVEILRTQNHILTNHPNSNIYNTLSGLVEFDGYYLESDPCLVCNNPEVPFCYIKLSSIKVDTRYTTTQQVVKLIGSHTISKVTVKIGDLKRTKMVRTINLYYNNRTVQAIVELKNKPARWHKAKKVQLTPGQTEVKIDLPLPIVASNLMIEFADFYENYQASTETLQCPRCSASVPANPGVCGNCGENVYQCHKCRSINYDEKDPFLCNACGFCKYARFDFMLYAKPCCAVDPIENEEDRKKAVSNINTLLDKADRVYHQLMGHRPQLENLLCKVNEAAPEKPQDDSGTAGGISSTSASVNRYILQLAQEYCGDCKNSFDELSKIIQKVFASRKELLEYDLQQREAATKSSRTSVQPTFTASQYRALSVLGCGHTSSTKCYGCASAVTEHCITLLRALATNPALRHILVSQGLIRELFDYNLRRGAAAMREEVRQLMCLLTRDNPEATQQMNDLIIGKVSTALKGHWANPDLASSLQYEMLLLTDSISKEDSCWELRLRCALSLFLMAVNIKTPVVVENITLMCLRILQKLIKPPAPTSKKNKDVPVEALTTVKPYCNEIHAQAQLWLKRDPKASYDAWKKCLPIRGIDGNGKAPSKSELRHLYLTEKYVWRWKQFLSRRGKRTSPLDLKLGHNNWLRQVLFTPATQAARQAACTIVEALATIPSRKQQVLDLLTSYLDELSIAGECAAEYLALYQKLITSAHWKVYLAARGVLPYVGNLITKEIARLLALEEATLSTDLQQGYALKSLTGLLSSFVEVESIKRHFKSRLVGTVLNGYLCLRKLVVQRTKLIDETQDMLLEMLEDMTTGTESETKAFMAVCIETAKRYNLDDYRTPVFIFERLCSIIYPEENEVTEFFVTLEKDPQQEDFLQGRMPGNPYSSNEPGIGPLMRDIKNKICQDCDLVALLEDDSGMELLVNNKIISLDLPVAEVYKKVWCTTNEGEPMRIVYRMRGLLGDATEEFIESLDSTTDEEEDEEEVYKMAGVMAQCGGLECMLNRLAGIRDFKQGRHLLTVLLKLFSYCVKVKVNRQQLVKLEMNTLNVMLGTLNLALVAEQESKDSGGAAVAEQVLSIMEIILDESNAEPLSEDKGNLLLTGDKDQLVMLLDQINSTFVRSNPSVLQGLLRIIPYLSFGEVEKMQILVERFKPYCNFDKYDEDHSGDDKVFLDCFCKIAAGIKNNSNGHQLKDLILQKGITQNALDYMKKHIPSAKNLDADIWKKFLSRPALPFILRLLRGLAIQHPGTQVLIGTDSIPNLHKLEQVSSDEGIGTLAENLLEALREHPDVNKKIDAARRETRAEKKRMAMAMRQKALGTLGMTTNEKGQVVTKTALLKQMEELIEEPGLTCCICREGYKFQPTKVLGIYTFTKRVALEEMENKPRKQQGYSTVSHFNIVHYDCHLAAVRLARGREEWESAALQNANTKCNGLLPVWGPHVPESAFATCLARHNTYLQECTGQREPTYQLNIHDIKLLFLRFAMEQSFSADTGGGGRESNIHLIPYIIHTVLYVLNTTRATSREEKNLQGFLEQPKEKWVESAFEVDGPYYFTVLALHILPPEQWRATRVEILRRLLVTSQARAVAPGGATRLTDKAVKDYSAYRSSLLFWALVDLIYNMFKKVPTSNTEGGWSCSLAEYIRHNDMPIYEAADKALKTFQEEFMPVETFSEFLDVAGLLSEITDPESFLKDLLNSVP

Target: EZH2 (enhancer of zeste homolog 2), endogenous in human melanoma cell lines (human (endogenous in A375, 28:B4:F3, LM-MEL45, IGR37)) (UniProt Q15910)
Assay: affinity purification with mass spectrometry; EZH2 co-immunoprecipitates from lysates of melanoma cell lines analysed by LC-MS; n = 3 biological replicates

UBR4, endogenous in human melanoma cell lines (from UniProt Q5T4S7 1-5183) (enzyme)
binding: binds
